Reference: patent US12133900B2, “Synthesis and composition of amino acid linking groups conjugated to compounds used for the targeted imaging of tumors” (Purdue Research Foundation, priority 2013, dated 2024)
At least one compound was matched to its structure with a doubt left. Some results were stated once for a whole list of compounds, not compound by compound.

Experiments:
[1] = system: folate receptor positive KB tumor xenografts; experiment: Whole body imaging and tissue biodistribution, KB tumor xenografts; type: in vivo, mice
Description: Seven-week-old female nu/nu mice were inoculated subcutaneously with KB cells (1.0×10^6/mouse in folate free RPM11640 medium) on the shoulder. […] […] Whole body imaging (intact tumor) experiments were then performed using a Caliper IVIS Lumina II Imaging Station with Living Image 4.0 software (PerkinElmer Inc, MA). Settings for imaging:—lamp level: medium; excitation: 745 nm; emission: 830 nm; epi illumination; binning: 4 (M), FOV=12.5; f-stop=2; acquisition time=1 s.
Following whole body imaging, animals were dissected and selected tissues (heart, lung, liver, spleen, kidneys, stomach, small intestine, large intestine, muscle, skin, tumor) were analyzed for fluorescence activity using IVIS imager as before. […]
Seven-week-old female nu/nu mice were inoculated subcutaneously with KB cells (1.0×10^6/mouse in folate free RPM11640 medium) on the shoulder. Growth of the tumors was measured in perpendicular directions every 2 days using a caliper (body weights were monitored on the same schedule), and the volumes of the tumors were calculated as 0.5×L×W^2 (L=longest axis and W=axis perpendicular to L in millimeters). […]
Following whole body imaging, animals were dissected and selected tissues (heart, lung, liver, spleen, kidneys, stomach, small intestine, large intestine, muscle, skin, and tumor) were analyzed for fluorescence activity using IVIS imager as before. […]

[2] = Toxicity in healthy nude mice; type: in vivo; conditions: 1 μmol tail vein
Description: Seven-week-old healthy female nude mice (5 mice/group) were administered with 1 μmol of freshly prepared OTL-0038 or OTL-0039 dissolved in 100 μL of phosphate buffered saline via tail vein injection on day zero. Body weights and clinical observations were monitored prior to dosing and daily thereafter from day zero to 7. Any animals with a body weight loss of 20% or more over two consecutive days would be euthanized, but this was not necessary. The animals were euthanized by CO2 asphyxiation on day 7 and selected tissues (brain, heart, lung, liver, spleen, kidney, stomach, small intestine, large intestine, muscle, skin) were collected into vials containing 4% formalin. Formalin fixed tissues were sectioned into 10 μm thick sections and mounted onto Superfrost Plus™ slides (Fisher Scientific, Pittsburgh Pa.). After staining the slides with H&E, immunohistochemistry (IHC) analysis of the tissues was conducted to determine to the toxicity of OTL-0038 and OTL-0039.

Row | SMILES | fluorescence at saturated FR ([1]; 10 nmol tail vein, live imaging) | lowest dose to obtain good tumor-to-background ratio ([1]; dose escalation 0.3-90 nmol i.v., listed as OTL38) | time in which the green color disappeared [2]
1 | CC1(C)C(/C=C/C2=C(Oc3ccc(C[C@H](NC(=O)c4ccc(NCc5cnc6nc(N)[nH]c(=O)c6n5)cc4)C(=O)[O-])cc3)C(=C/C=C3\N(CCCCS(=O)(=O)[O-])c4ccc(S(=O)(=O)[O-])cc4C3(C)C)/CCC2)=[N+](CCCCS(=O)(=O)[O-])c2ccc(S(=O)(=O)[O-])cc21.[H+].[H+].[H+].[H+] [OTL-0038, Pte-Tyr-S0456] | 1.2-1.5×109 | 1.0-about 3.0 | ≤ 24 h
2 | CC1(C)C(=CC=C2CCCC(C=CC3=[N+](CCCCS(=O)(=O)[O-])c4ccc(S(=O)(=O)O)cc4C3(C)C)=C2Oc2ccc(C[C@@H](NC(=O)c3ccc(NCc4cnc5nc(N)[nH]c(=O)c5n4)cc3)C(=O)O)cc2)N(CCCCS(=O)(=O)O)c2ccc(S(=O)(=O)O)cc21 [OTL-0039, PTE-D-Tyr-S0456] |  |  | ≤ 24 h
